Some of the results follow.
Tests used:
Test in all cases: log2 fold change, soluble protein after heating vs DMSO (PISA); higher = thermal stabilisation; K562 cells, 10 uM, 30 min; active = over 0.2 and 3.5 SD of the protein, either way, in both replicates (recomputed)
[1] = compound: NC(=O)Nc1cc(-c2cccc(F)c2)sc1C(=O)N[C@H]1CCCNC1
How it was run: (§1)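 Soluble protein was quantified by TMTpro 16plex LC-MS/MS after channel sums were equalised. It was obtained as the supernatant after 21,000xg for 90 min from pooled aliquots of K562 cells (2×10^6 cells/mL, 10 μM compound, 30 min) heated for 3 min across 48°C-58°C and extracted in PBS with 0.5% NP-40 at 4°C. Thermal stability values are relative to control samples and come from duplicates. They are given as log2 fold changes.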

Protein sequences, listed by entry. Tags and fused reporters are not part of them. Lines headed by an entry give the natural chain unless they say otherwise; changes in a name come on top.
UniProt P37108: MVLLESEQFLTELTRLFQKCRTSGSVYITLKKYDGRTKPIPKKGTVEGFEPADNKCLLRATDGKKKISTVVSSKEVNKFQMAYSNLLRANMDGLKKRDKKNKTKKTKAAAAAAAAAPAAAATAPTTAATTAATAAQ
UniProt Q9GZT4: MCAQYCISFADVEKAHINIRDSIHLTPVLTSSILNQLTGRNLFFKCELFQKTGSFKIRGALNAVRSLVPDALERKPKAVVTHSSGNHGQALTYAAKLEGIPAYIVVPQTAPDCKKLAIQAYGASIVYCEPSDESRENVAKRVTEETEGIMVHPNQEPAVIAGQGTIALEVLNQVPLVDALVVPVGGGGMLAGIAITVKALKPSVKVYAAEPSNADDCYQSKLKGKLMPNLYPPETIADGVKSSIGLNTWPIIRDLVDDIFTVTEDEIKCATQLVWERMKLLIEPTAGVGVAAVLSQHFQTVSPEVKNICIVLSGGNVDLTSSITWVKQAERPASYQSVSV
UniProt P61009: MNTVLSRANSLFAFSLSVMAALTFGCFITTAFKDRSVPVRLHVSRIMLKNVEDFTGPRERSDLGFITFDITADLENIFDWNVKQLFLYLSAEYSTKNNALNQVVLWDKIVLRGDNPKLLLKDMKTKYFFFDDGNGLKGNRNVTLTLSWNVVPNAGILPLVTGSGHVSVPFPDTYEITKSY
UniProt P61011: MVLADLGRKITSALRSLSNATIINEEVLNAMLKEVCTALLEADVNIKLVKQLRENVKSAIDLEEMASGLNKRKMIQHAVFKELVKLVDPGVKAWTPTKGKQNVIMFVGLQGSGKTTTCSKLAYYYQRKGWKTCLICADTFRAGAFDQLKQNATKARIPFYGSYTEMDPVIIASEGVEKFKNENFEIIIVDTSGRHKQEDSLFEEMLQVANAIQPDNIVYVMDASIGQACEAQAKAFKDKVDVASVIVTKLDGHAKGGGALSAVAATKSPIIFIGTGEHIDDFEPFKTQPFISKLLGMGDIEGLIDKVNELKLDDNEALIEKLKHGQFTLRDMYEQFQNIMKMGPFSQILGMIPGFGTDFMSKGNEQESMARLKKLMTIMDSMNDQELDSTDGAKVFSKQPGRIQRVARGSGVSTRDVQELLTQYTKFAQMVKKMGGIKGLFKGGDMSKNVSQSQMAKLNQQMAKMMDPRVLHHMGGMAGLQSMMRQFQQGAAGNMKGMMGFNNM
UniProt P51692: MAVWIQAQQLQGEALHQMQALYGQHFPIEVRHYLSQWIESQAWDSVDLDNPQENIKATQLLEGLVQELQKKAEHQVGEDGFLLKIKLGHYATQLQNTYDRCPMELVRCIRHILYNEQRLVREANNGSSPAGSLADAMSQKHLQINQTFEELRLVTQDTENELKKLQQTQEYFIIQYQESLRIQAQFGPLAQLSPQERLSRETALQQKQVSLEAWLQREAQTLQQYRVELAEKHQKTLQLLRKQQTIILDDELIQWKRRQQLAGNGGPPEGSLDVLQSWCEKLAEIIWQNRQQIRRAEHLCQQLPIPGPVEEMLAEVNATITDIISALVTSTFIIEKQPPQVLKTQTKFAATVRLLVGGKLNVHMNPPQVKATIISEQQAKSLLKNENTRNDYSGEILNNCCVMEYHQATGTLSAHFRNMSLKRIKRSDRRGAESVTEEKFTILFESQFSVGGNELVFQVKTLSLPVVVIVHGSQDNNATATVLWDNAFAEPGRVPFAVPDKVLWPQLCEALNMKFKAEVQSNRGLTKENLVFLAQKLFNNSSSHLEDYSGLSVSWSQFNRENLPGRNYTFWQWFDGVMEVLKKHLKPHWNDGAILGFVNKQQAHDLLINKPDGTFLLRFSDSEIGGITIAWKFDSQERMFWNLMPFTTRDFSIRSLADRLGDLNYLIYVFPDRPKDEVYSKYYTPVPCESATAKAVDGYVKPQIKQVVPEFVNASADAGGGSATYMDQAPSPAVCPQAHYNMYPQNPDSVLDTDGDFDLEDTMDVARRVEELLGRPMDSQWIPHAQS
UniProt Q92783: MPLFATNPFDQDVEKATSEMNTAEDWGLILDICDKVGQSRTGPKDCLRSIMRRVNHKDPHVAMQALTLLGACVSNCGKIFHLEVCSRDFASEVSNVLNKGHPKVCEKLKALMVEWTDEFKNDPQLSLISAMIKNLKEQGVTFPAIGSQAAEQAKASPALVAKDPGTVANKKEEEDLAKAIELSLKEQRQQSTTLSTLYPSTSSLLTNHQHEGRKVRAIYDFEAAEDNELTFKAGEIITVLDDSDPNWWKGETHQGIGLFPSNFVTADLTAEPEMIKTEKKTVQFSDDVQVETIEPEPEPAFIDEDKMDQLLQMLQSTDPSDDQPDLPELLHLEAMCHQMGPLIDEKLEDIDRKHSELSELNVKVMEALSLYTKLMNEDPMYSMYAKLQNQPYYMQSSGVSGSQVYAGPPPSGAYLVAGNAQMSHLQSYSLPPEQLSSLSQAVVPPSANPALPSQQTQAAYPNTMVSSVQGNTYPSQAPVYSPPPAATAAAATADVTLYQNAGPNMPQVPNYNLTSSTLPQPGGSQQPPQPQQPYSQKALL
UniProt P10124: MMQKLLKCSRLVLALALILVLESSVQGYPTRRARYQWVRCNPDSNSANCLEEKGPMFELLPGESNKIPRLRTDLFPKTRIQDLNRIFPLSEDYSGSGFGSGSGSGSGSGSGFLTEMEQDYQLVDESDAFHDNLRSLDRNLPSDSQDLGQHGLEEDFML
UniProt Q05519: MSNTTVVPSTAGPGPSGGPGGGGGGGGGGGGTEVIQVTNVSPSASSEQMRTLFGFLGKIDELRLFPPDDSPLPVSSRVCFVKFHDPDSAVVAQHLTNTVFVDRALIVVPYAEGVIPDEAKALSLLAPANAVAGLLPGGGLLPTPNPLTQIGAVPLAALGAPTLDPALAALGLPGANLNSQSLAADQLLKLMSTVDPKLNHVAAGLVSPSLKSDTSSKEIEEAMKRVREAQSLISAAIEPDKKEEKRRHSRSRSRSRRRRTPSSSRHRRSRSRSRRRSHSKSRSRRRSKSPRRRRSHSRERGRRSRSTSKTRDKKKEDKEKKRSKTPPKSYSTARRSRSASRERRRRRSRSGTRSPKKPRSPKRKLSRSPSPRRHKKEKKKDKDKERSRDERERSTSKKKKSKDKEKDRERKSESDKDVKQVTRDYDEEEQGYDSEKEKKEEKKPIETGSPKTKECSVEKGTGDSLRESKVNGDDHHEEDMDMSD
UniProt P61647: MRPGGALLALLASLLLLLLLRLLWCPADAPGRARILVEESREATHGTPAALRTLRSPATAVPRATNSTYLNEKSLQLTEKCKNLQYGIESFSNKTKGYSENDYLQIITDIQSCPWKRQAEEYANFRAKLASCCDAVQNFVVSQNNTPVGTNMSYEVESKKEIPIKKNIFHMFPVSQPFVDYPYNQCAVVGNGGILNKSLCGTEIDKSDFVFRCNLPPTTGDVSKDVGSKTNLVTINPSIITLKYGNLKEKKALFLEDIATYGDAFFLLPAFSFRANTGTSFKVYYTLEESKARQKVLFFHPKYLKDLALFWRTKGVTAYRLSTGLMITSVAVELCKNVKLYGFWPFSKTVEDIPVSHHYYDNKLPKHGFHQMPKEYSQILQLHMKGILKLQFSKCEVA
UniProt Q6ZUB1: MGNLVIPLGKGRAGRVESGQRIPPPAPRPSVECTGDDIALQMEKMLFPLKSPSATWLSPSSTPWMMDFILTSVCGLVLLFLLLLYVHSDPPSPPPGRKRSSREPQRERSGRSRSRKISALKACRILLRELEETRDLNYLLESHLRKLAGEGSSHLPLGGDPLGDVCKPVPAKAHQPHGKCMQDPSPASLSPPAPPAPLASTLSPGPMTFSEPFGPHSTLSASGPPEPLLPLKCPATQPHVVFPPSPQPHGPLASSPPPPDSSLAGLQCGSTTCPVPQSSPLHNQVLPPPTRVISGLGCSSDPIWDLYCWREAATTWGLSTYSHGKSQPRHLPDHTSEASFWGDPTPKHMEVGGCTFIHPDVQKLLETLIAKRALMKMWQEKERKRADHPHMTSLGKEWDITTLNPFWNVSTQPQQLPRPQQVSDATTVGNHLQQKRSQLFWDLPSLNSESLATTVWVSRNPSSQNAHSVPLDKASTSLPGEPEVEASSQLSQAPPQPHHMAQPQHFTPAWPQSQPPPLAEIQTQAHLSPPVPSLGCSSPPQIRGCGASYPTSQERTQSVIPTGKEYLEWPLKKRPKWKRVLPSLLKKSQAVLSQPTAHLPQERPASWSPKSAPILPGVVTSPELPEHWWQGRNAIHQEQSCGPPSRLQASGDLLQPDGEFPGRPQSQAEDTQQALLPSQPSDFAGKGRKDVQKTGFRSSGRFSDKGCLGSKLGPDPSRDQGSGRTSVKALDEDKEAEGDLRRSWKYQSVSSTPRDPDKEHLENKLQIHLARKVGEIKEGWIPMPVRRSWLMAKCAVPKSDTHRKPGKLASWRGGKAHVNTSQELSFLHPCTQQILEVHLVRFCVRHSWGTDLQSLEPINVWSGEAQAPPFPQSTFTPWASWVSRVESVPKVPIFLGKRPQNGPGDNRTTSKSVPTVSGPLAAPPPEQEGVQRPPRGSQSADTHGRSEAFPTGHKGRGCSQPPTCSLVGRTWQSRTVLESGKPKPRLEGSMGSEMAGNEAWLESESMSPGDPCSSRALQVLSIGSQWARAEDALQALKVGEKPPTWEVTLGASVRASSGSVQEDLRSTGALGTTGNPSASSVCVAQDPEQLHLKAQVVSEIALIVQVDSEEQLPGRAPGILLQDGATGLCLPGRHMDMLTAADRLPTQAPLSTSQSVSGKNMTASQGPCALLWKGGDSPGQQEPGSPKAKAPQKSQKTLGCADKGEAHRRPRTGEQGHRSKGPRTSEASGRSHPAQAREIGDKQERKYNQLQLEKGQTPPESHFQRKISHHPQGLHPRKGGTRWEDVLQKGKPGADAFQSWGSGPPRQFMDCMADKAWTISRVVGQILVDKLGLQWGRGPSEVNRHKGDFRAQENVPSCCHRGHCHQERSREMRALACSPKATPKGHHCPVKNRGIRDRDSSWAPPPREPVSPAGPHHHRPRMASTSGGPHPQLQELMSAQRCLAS
UniProt Q04837: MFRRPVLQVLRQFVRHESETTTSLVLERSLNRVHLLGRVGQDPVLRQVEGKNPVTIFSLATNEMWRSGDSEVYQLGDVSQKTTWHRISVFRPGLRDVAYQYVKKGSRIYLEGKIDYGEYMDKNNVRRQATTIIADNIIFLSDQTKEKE
UniProt Q9NSC7: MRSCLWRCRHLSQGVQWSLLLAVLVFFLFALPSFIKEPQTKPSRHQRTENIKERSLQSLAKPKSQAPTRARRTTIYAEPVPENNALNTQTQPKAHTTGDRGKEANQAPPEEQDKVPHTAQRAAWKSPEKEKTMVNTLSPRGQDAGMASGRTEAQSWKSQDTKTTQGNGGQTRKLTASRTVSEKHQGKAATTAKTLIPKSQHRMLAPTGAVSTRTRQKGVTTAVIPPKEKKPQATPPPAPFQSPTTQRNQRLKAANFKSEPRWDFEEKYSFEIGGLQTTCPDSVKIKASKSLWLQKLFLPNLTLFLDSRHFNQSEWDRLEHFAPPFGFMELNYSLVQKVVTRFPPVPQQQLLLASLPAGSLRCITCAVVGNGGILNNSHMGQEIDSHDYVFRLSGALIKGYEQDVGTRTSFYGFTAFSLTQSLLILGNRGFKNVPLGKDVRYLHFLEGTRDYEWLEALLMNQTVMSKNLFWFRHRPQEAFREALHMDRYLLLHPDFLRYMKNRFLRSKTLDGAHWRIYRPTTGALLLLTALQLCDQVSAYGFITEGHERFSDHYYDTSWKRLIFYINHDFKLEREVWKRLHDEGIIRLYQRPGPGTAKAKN
UniProt Q9BVQ7: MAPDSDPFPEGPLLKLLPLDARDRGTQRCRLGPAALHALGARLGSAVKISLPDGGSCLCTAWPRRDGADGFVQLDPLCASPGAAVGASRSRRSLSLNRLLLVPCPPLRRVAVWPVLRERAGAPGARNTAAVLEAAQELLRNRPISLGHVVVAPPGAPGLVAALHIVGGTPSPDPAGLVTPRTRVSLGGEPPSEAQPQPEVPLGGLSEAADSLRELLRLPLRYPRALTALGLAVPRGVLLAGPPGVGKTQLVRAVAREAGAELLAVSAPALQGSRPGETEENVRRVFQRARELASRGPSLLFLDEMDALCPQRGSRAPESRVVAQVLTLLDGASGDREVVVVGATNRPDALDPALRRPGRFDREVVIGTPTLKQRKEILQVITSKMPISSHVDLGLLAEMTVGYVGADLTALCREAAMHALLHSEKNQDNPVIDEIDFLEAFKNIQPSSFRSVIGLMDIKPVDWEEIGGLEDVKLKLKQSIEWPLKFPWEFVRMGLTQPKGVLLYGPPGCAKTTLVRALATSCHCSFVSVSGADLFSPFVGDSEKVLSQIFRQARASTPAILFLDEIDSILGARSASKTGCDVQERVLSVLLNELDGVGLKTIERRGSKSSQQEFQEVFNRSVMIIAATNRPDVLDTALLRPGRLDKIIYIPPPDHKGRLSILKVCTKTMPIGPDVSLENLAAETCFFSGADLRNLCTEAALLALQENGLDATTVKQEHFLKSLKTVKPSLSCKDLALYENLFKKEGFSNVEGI

[2] = compound: NC(=O)c1cnc(N[C@@H]2CCCC[C@@H]2N)nc1Nc1cccc(-n2nccn2)c1
How it was run: as §1

[3] = compound: NC1(c2ccc(-c3nc4ccn5c(=O)[nH]nc5c4cc3-c3ccccc3)cc2)CCC1
How it was run: as §1

[4] = compound: NCC(=O)Nc1ccc(-n2nc(C(F)(F)F)cc2-c2ccc3c(ccc4ccccc43)c2)cc1
How it was run: as §1

[5] = compound: Nc1ccccc1NC(=O)c1ccc(CNC(=O)OCc2cccnc2)cc1 [entinostat]
How it was run: as §1

[6] = compound: O=C(CCCCCCC(=O)Nc1ccccc1)NO [vorinostat]
How it was run: as §1

[7] = compound: O=C(CCCCCCNC(=O)c1cnc(N(c2ccccc2)c2ccccc2Cl)nc1)NO [citarinostat]
How it was run: as §1

[8] = compound: O=C(O)c1ccc2c(c1)nc(Nc1cccc(Cl)c1)c1ccncc12 [silmitasertib]
How it was run: as §1

[9] = compound: O=C1NC(=O)C(c2cnc3ccccn23)=C1c1cn2c3c(cc(F)cc13)CN(C(=O)N1CCCCC1)CC2
How it was run: as §1

[10] = compound: c1cc(OCCN2CCCCC2)cc(-c2n[nH]c3ccc(-c4nnc[nH]4)cc23)c1
How it was run: as §1

Measured: log2 fold change

SPC24 (UniProt Q8NBT2)
inactive: [1] 0.038 | [2] 0.031 | [3] -0.092 | [4] 0.025 | [5] 0.091 | [6] 0.095 | [7] 0.038 | [8] 0.036 | [9] -0.059 | [10] 0

STARD3NL (UniProt O95772)
inactive: [1] 0.018 | [2] -0.104 | [4] -0.031 | [5] 0.093 | [6] 0.037 | [7] 0.004 | [8] 0.044 | [9] -0.013 | [10] 0.035
active: [3] -0.413

SRP14 (UniProt P37108)
inactive: [1] 0.036 | [2] -0.046 | [3] 0.294 | [4] 0.092 | [5] -0.094 | [6] -0.02 | [7] -0.123 | [8] 0.085 | [9] 0.153 | [10] -0.148

SRR (UniProt Q9GZT4)
inactive: [1] 0.044 | [2] 0.025 | [3] -0.069 | [4] -0.006 | [5] 0 | [6] -0.077 | [7] -0.023 | [8] -0.013 | [9] 0.04 | [10] 0.035

STK24 (UniProt Q9Y6E0)
inactive: [1] 0.106 | [2] 0.062 | [3] -0.105 | [4] 0.019 | [5] -0.015 | [6] 0.027 | [7] 0.058 | [8] -0.007 | [9] -0.054 | [10] -0.005

SPR (UniProt P35270)
inactive: [1] 0.006 | [2] 0.13 | [4] -0.002 | [5] -0.049 | [6] -0.154 | [7] -0.041 | [8] 0.004 | [9] 0.176 | [10] 0.066
active: [3] 0.491

SPCS3 (UniProt P61009)
inactive: [1] 0.009 | [2] -0.009 | [3] -0.024 | [4] 0.007 | [5] -0.059 | [6] -0.009 | [7] -0.002 | [8] 0.017 | [9] -0.059 | [10] 0.035

SRP54 (UniProt P61011)
inactive: [1] -0.017 | [2] -0.051 | [3] -0.106 | [4] -0.075 | [5] 0.051 | [6] 0.026 | [7] 0.054 | [8] 0 | [9] -0.039 | [10] -0.048

SSR4 (UniProt P51571)
inactive: [1] 0.032 | [2] -0.013 | [3] -0.011 | [4] 0.023 | [5] -0.011 | [6] 0 | [7] 0.019 | [8] -0.029 | [9] 0.004 | [10] -0.056

SPTBN4 (UniProt Q9H254)
inactive: [1] 0 | [2] -0.09 | [3] -0.095 | [4] 0.033 | [5] 0.014 | [6] 0.026 | [7] 0.05 | [8] 0.062 | [9] 0.129 | [10] -0.013

STAG1 (UniProt Q8WVM7)
inactive: [1] -0.017 | [2] -0.071 | [3] -0.075 | [4] -0.022 | [5] -0.007 | [6] 0.118 | [7] 0.142 | [8] -0.056 | [9] -0.062 | [10] -0.1

SPTLC1 (UniProt O15269)
inactive: [1] 0.021 | [2] 0.014 | [3] -0.066 | [4] -0.04 | [5] 0.032 | [6] -0.011 | [7] 0.058 | [8] 0.002 | [9] -0.031 | [10] -0.009

SRSF7 (UniProt Q16629)
inactive: [1] 0 | [2] 0.13 | [3] 0.525 | [4] 0.027 | [5] -0.079 | [6] 0 | [7] -0.132 | [8] -0.144 | [9] 0.357 | [10] -0.33

SPTBN2 (UniProt O15020)
inactive: [1] -0.088 | [2] -0.068 | [3] -0.096 | [4] 0.044 | [5] 0.123 | [6] -0.014 | [7] -0.055 | [8] 0.167 | [9] 0.062 | [10] -0.075

SREK1 isoform 2 (UniProt Q8WXA9)
inactive: [1] 0.194 | [2] -0.068 | [3] 0.03 | [4] -0.208 | [5] 0.012 | [6] 0.05 | [7] 0.129 | [8] -0.148 | [9] 0.059 | [10] -0.213

STAT5B (UniProt P51692)
inactive: [1] -0.027 | [2] -0.022 | [3] -0.207 | [4] -0.129 | [5] 0.282 | [6] 0.18 | [7] 0.15 | [8] 0.043 | [9] 0.045 | [10] 0.024

STAM (UniProt Q92783)
inactive: [1] -0.03 | [2] -0.046 | [3] -0.069 | [4] -0.037 | [5] -0.015 | [6] -0.007 | [7] 0.044 | [8] 0.036 | [9] 0.031 | [10] 0.052

SPNS1 (UniProt Q9H2V7)
inactive: [1] 0.012 | [2] -0.031 | [3] -0.05 | [4] -0.033 | [5] 0.026 | [6] -0.142 | [7] -0.046 | [8] 0.039 | [9] 0.101 | [10] 0.029

SRP19 (UniProt P09132)
inactive: [1] -0.037 | [2] 0.007 | [3] -0.048 | [4] -0.025 | [5] 0.008 | [6] 0.027 | [7] -0.011 | [8] 0.098 | [9] -0.039 | [10] -0.018

Quoted from the results shown (two entries):
STAT5B (UniProt P51692)
inactive: [1] -0.027 | [2] -0.022 | [3] -0.207 | [4] -0.129 | [5] 0.282 | [6] 0.18 | [7] 0.15 | [8] 0.043 | [9] 0.045 | [10] 0.024

STAM (UniProt Q92783)
inactive: [1] -0.03 | [2] -0.046 | [3] -0.069 | [4] -0.037 | [5] -0.015 | [6] -0.007 | [7] 0.044 | [8] 0.036 | [9] 0.031 | [10] 0.052

Following part:

SRGN (UniProt P10124)
inactive: [1] -0.097 | [2] 0.133 | [3] 0.172 | [4] 0.284 | [5] -0.026 | [6] 0.019 | [7] -0.035 | [8] -0.009 | [9] 0.085 | [10] -0.192

SRRM1 (UniProt Q8IYB3)
inactive: [1] -0.024 | [2] 0.045 | [3] 0.035 | [4] -0.012 | [5] -0.054 | [6] -0.023 | [7] -0.091 | [8] -0.023 | [9] 0.035 | [10] -0.235

SRSF11 (UniProt Q05519)
inactive: [1] -0.183 | [2] -0.032 | [3] -0.063 | [4] -0.074 | [5] 0.018 | [6] 0.06 | [7] 0.046 | [8] -0.099 | [9] 0.037 | [10] -0.038

SRRD (UniProt Q9UH36)
inactive: [1] 0.11 | [2] -0.057 | [3] -0.406 | [5] -0.047 | [7] 0.056 | [8] 0.281 | [9] 0.096 | [10] -0.039

SQLE (UniProt Q14534)
inactive: [1] -0.101 | [2] -0.081 | [3] 0.104 | [4] -0.071 | [5] -0.004 | [6] -0.011 | [7] 0.03 | [8] 0.04 | [9] -0.08 | [10] -0.016

ST8SIA6 (UniProt P61647)
inactive: [1] -0.146 | [2] -0.155 | [4] -0.178 | [5] 0.051 | [6] 0.17

STAT2 (UniProt P52630)
inactive: [1] 0.169 | [2] -0.03 | [3] -0.488 | [4] -0.179 | [5] 0.091 | [6] 0.088 | [7] 0.135 | [8] 0.391 | [10] 0.016

SPTLC2 (UniProt O15270)
inactive: [1] -0.063 | [2] -0.028 | [3] -0.092 | [4] -0.044 | [5] -0.021 | [6] -0.041 | [7] 0.035 | [8] 0.034 | [9] -0.07 | [10] -0.033

SPATA31E1 (UniProt Q6ZUB1)
inactive: [1] -0.389 | [2] -0.545 | [3] -0.093 | [4] -0.186 | [5] -0.121 | [6] -0.086 | [7] -0.13 | [8] 0.223 | [10] -0.179

SSBP1 (UniProt Q04837)
inactive: [1] -0.037 | [2] -0.013 | [3] 0.024 | [4] 0.041 | [5] -0.028 | [6] -0.054 | [7] -0.021 | [8] 0.019 | [9] 0.028 | [10] -0.062

ST6GALNAC1 (UniProt Q9NSC7)
inactive: [1] 0.042 | [2] 0.15 | [3] 0.005 | [4] 0.047 | [5] 0.02 | [7] 0.041 | [8] 0.011 | [9] 0.079 | [10] -0.011

SPATA5L1 (UniProt Q9BVQ7)
inactive: [1] 0.003 | [2] -0.048 | [3] 0.039 | [4] -0.013 | [5] -0.054 | [6] -0.036 | [7] -0.046 | [8] 0.007 | [9] -0.017 | [10] -0.019

From the supplement of paper PMC10849652
